{"sequences": {"note": "The chains behind the UniProt entries cited, without tags or fusion partners.", "UniProt O60934": "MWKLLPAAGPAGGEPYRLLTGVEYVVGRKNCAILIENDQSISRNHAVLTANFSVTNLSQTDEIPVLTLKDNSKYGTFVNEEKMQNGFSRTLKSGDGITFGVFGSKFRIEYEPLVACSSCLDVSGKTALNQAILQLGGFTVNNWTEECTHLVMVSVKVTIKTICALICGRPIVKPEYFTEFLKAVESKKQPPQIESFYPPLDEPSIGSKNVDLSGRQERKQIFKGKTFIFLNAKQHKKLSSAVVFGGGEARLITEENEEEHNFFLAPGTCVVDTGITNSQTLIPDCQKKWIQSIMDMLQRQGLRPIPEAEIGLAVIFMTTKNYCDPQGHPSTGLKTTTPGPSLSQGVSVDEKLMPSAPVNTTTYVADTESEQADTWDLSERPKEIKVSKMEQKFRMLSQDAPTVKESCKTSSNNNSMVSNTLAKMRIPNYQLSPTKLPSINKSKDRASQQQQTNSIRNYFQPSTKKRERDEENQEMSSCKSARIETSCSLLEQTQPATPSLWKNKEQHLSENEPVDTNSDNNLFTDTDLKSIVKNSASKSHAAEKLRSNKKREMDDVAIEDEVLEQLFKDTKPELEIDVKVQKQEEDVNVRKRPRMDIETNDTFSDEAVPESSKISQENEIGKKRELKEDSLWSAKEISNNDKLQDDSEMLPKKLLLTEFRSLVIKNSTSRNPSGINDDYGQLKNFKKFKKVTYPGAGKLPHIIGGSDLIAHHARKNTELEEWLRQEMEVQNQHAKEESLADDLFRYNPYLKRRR", "UniProt Q00987": "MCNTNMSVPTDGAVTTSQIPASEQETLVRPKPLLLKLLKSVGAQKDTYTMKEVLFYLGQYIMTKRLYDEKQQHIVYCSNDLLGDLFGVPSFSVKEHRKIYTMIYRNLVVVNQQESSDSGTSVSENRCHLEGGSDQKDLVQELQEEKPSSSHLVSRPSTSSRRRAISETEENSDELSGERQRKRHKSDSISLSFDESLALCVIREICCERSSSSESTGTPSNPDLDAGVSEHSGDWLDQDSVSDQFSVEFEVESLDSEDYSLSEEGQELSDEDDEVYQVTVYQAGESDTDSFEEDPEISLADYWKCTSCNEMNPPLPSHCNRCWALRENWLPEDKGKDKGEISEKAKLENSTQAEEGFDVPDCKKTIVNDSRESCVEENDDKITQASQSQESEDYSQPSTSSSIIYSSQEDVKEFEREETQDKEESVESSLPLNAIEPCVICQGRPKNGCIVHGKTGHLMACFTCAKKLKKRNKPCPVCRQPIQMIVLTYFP"}, "source": "paper PMC6756050", "key": {"[1]": {"target": "T1, HA-tagged HBP1 (UniProt O60381)", "T1 sequence": "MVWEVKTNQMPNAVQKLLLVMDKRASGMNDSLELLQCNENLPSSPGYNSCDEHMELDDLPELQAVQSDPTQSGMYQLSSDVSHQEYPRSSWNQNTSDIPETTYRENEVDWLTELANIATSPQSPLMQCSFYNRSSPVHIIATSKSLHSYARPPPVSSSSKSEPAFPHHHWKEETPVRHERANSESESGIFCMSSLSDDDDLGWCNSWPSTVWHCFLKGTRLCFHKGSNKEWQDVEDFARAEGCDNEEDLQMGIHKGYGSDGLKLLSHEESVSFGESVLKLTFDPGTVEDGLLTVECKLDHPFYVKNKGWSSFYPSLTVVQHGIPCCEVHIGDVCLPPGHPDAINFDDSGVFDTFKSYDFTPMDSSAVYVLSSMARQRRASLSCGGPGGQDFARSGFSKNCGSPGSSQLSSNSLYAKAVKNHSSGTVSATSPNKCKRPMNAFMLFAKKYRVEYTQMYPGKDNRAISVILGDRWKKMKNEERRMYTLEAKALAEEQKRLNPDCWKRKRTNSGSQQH", "experiment": "co-IP; 293T cells co-transfected with HA-HBP1 and FLAG-MDM2; IP with anti-FLAG or anti-HA, blot with anti-HA or anti-FLAG; IP lysis buffer 25 mM Tris-HCl pH 7.4, 150 mM NaCl, 1% NP-40, 1 mM EDTA, 5% glycerol; overnight at 4 °C"}, "[2]": {"target": "SFB-Nbs1 (UniProt O60934)", "experiment": "co-IP; H1299 cells co-transfected with SFB-Nbs1 and FLAG-MDM2 with or without HA-HBP1; capture on Streptavidin Sepharose, western blot"}, "[3]": {"target": "T1, HA-tagged HBP1", "experiment": "co-IP; H1299 cells co-transfected with HA-HBP1 and FLAG-MDM2, without ionizing radiation; IP with anti-FLAG or anti-HA, blot with anti-HA or anti-FLAG"}, "[4]": {"target": "T2, endogenous HBP1 (human (endogenous in H1299)) (UniProt O60381)", "T2 sequence": "T1 sequence", "experiment": "co-IP; endogenous proteins of p53-null H1299 cells; IP with anti-HBP1, anti-MDM2 or anti-MDM4, blot with MDM2, MDM4 or HBP1 antibody; IP lysis buffer"}, "[5]": {"target": "T3, N-terminal GST-tagged full-length HBP1 (UniProt O60381)", "T3 sequence": "T1 sequence", "experiment": "pull-down; purified GST-tagged proteins or GST alone on glutathione-Sepharose beads overnight at 4 °C, His-tagged proteins added for 4 h at 4 °C, three washes, elution, western blot; both purified"}, "[6]": {"target": "FLAG-tagged MDM2 (Mouse double minute 2) (UniProt Q00987)", "experiment": "co-IP; H1299 cells transfected with FLAG-MDM2 with or without HA-HBP1; IP with anti-FLAG, blot with anti-Nbs1"}}, "note": "Results are given in words; binding and its absence hold for the method and conditions named. For part of these data: Binding seen in cells or lysates may run through a third protein. Some binding calls cover weakened binding; strength is not graded here. For part of these data: Tags and fused reporters may be left off the sequences shown."}
{"substance": "FLAG-tagged MDM2 (Mouse double minute 2) (from UniProt Q00987 1-491)", "values": [{"measurement": "binding", "setting": "[1]", "result": "binds"}, {"measurement": "binding", "setting": "[2]", "result": "binds"}, {"measurement": "binding", "setting": "[3]", "result": "binds"}]}
{"substance": "endogenous MDM2 (from UniProt Q00987 1-491)", "values": [{"measurement": "binding", "setting": "[4]", "result": "binds"}]}
{"substance": "His-tagged MDM2 (from UniProt Q00987 1-491)", "values": [{"measurement": "binding", "setting": "[5]", "result": "binds"}]}
{"substance": "endogenous Nbs1 (from UniProt O60934 1-754)", "values": [{"measurement": "binding", "setting": "[6]", "result": "binds"}]}
